In publication PMC12594620, “The Role of the [2Fe‐2S] Cluster of Escherichia coli IscR in Responding to Redox‐Cycling Agents” one finds binding result and Kd data, which are given here for one sequence.

By UniProt entry, the sequences of proteins in these tests, tags left out. Where a name states a change or a piece, a line headed by the entry shows the natural chain unless it says otherwise.
UniProt P0AGK8: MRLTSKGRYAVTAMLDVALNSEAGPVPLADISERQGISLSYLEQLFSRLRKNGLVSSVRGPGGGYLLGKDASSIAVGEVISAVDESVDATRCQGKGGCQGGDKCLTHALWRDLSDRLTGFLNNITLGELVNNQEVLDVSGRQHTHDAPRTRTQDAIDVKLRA

For at least one entry, the source does not settle the construct or the ends of the probe. Weaker means in comparison with the reference protein, sequence or condition of that experiment. Some results are limits rather than exact numbers.

The target of the series is [2Fe-2S]-IscR (wild type, anaerobically isolated) (Escherichia coli K12) (UniProt P0AGK8). The series can be described thus: fluorescence anisotropy. To be noted: Anisotropy: 40 mM Tris-Cl pH 7.9, 30 mM KCl, 5% glycerol, anaerobic unless stated, temperature not stated for the binding step, recombinant protein, label: 5' Texas Red on strand 1. For orientation: Fluorescence polarisation rises when a labelled molecule tumbles more slowly, as on binding a larger partner.

For “AAATAGTTGACCATTTTACTCGGGAATGTC (double strand) [iscRB type 1 site 30 bp]”, the binding result (air 15 min and assayed in air ([2Fe-2S]2+), impairment similar to PMS) was “binds more weakly”. Further, the Kd (anaerobic, 2 uM PMS (oxidized [2Fe-2S]2+ cluster), apparent Kd, at least 50-fold weaker) is more than 1000 nM.
